Measured values published in ChEMBL document CHEMBL1782003, “Development and SAR of functionally selective allosteric modulators of GABAA receptors” (Bioorg Med Chem, 2011).
Values after ≈ are worked out from the molar mass of the structure shown.

Experiment: physchem

Question: With `COc1ccc(OC)c(-c2cccc3c(N)c(C(=O)NC4(C)CCC4)nnc23)c1` as the compound, how does the solubility read?
Answer: 7.9 µM (≈ 3.1 µg/mL)

Question: Which solubility does the source give for `CCCNC(=O)c1nnc2c(-c3ccc(OC)cc3OC)c(F)ccc2c1N` here?
Answer: 1.4 µM (≈ 0.538 µg/mL)

Question: Which solubility does the source give for `COc1ncccc1-c1cccc2c(N)c3c(nc12)CN(C1CCC1)C3=O` here?
Answer: 9.4 µM (≈ 3.39 µg/mL)
